Laboratory results published in patent US20060222643A1 (Chugai, published 2006).
Numbering of substitutions follows the chain as printed. These are yes or no findings as the source states them, for the method shown. Some entries that bind do so weakly or less than the wild type. Where a sequence is shown, tags or fusion partners need not be part of it. No end group written: not given here.

T1: MG10 (Gln213 to Ala231)-GST fusion protein (human)
T1 sequence: QPTMPWQDGPKQTSPSREA

B1: anti-human Mpl antibody VB22B IgG (antibody, V domains shown)
VH: QVQLQQSGPELVKPGASVKISCKASGYAFTNSWMNWVKQRPGKGLEWIGRIYPGDGETIYNGKFRVKATLTADKSSSTAYMDISSLTSEDSAVYFCARGYDDYSFAYWGQGTLVTVSA
VL: DIVMTQAAPSIPVTPGESVSISCRSSKSLLHSNGNTYLYWFLQRPGQSPQLLIYRMSNLASGVPDRFSGSGSGTAFTLRISRVEAEDVGVYYCMQHIEYPFTFGSGTKLEIK
notes: also called murine antibody VB22B
B2: VB22B sc(Fv)2 (scFv)
chain: QVQLQQSGPELVKPGASVKISCKASGYAFTNSWMNWVKQRPGKGLEWIGRIYPGDGETIYNGKFRVKATLTADKSSSTAYMDISSLTSEDSAVYFCARGYDDYSFAYWGQGTLVTVSAGGGGSGGGGSGGGGSDIVMTQAAPSIPVTPGESVSISCRSSKSLLHSNGNTYLYWFLQRPGQSPQLLIYRMSNLASGVPDRFSGSGSGTAFTLRISRVEAEDVGVYYCMQHIEYPFTFGSGTKLEIKGGGGSGGGGSGGGGSQVQLQQSGPELVKPGASVKISCKASGYAFTNSWMNWVKQRPGKGLEWIGRIYPGDGETIYNGKFRVKATLTADKSSSTAYMDISSLTSEDSAVYFCARGYDDYSFAYWGQGTLVTVSAGGGGSGGGGSGGGGSDIVMTQAAPSIPVTPGESVSISCRSSKSLLHSNGNTYLYWFLQRPGQSPQLLIYRMSNLASGVPDRFSGSGSGTAFTLRISRVEAEDVGVYYCMQHIEYPFTFGSGTKLEIK
notes: Single-chain (Fv)2 with 15-residue linkers, purified on anti-Flag gel (FLAG-tagged); also called murine VB22B sc(Fv)2; anti-human Mpl sc(Fv)2
B3: hVB22B q-wz5 sc(Fv)2 (scFv)
chain: QVQLVQSGPEVKKPGASVKVSCKASGYTFTNSWMNWVRQRPGKGLEWIGRIYPGDGETIYNGKFRVRVTITADESTSTAYMELSSLRSEDTAVYYCARGYDDYSFAYWGQGTTVTVSSGGGGSGGGGSGGGGSDIVMTQSPLSLPVTPGEPASISCRSSKSLLHSNGNTYLYWFQQKPGQAPRLLIYRMSNLASGVPDRFSGSGSGTAFTLKISRVEAEDVGVYYCMQHIEYPFTFGQGTKLEIKGGGGSGGGGSGGGGSQVQLVQSGPEVKKPGASVKVSCKASGYTFTNSWMNWVRQRPGKGLEWIGRIYPGDGETIYNGKFRVRVTITADESTSTAYMELSSLRSEDTAVYYCARGYDDYSFAYWGQGTTVTVSSGGGGSGGGGSGGGGSDIVMTQSPLSLPVTPGEPASISCRSSKSLLHSNGNTYLYWFQQKPGQAPRLLIYRMSNLASGVPDRFSGSGSGTAFTLKISRVEAEDVGVYYCMQHIEYPFTFGQGTKLEIK
notes: Humanized sc(Fv)2 without Flag tag, purified on an MG10-GST column; also called humanized VB22B sc(Fv)2 (q-wz5)
B4: hVB22B u2-wz4 sc(Fv)2 (scFv)
chain: B3 chain with E82Q, Q175L, A181S, R183Q, A208D, E342Q, Q435L, A441S, R443Q, A468D
notes: Humanized sc(Fv)2 without Flag tag, purified on an MG10-GST column; also called humanized VB22B sc(Fv)2 (u2-wz4)
B5: hVB22B p-z sc(Fv)2 (scFv)
chain: B3 chain with I48M, P141A, A181S, R183Q, I308M, P401A, A441S, R443Q
B6: hVB22B g-e sc(Fv)2 (scFv)
chain: QVQLVQSGPEVKKPGASVKVSCKASGYTFTNSWMNWVRQRPGKGLEWVGRIYPGDGETIYNGKFRVRVTITADESTSTAYMELSSLRSEDTAVYYCARGYDDYSFAYWGQGTTVTVSSGGGGSGGGGSGGGGSDIVMTQSALSLPVTPGEPASISCRSSKSLLHSNGNTYLYWYLQKPGQSPQLLIYRMSNLASGVPDRFSGSGSGTAFTLKISRVEAEDVGVYYCMQHIEYPFTFGQGTKLEIKGGGGSGGGGSGGGGSQVQLVQSGPEVKKPGASVKVSCKASGYTFTNSWMNWVRQRPGKGLEWVGRIYPGDGETIYNGKFRVRVTITADESTSTAYMELSSLRSEDTAVYYCARGYDDYSFAYWGQGTTVTVSSGGGGSGGGGSGGGGSDIVMTQSALSLPVTPGEPASISCRSSKSLLHSNGNTYLYWYLQKPGQSPQLLIYRMSNLASGVPDRFSGSGSGTAFTLKISRVEAEDVGVYYCMQHIEYPFTFGQGTKLEIK
B7: hVB22B e sc(Fv)2 (scFv)
chain: B6 chain with V37I, V48I, T113L, V297I, V308I, T373L

Molecular target: T1, MG10 (Gln213 to Ala231)-GST fusion protein (human)
Assay: Western blotting of GST fusion protein

binding	Binder
binds	B1

Molecular target: T1, MG10 (Gln213 to Ala231)-GST fusion protein (human)
Assay: SPR, Biacore 3000, MG10-GST immobilized

binding	Binder
binds	B2
binds	B3
binds	B4
binds	B1

Molecular target: T1, MG10 (Gln213 to Ala231)-GST fusion protein (human)
Assay: affinity column of immobilized MG10-GST fusion protein, CHO culture supernatant loaded

binding	Binder
binds	B5
binds	B6
binds	B7
binds	B3
binds	B4
